One molecule from patent US20190022245A1 can be followed below.

The chains behind the UniProt entries cited, without tags or fusion partners. Residues count along the entry.
UniProt P15391, residues 20-556: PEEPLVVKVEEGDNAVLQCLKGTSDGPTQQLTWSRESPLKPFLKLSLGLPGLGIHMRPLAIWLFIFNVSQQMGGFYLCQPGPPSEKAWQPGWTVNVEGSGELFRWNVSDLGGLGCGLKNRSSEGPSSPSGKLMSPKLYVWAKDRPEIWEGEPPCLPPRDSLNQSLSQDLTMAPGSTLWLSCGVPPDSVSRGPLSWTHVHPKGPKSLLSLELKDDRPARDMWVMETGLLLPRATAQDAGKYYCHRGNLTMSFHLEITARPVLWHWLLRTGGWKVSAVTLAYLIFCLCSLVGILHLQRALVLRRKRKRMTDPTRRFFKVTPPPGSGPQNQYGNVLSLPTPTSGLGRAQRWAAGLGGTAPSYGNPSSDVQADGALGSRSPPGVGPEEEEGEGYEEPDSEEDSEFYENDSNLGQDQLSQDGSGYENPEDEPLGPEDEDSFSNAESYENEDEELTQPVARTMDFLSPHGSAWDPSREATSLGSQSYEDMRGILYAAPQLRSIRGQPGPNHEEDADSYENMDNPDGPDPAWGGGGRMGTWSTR

Results are given in words; binding and its absence hold for the method and conditions named. Some results given as binding are weak or reduced against the parent protein; the word gives no strength.

This experiment addresses CD19 on cells (human (on human cell lines)) (UniProt P15391). Description: binding to Raji cells; also delivery of Lipo/DOX to CD19 positive cells.

B1: h15-2b scFv × CD19 Fab (monovalent anti-mPEG (h15-2b) anti-CD19 BsAb, example 2.4) (bispecific antibody)
heavy: EVQLVESGGGLVQPGGSLRLSCAASGFTFSSSWMNWVRQAPGKGLEWVGRIYPGDGDTNYNGKFKGRFTISRDDSKNSLYLQMNSLKTEDTAVYYCARSGFITTVLDFDYWGQGTLVTVSSASTKGPSVFPLAPSSKSTSGGTAALGCLVKDYFPEPVTVSWNSGALTSGVHTFPAVLQSSGLYSLSSVVTVPSSSLGTQTYICNVNHKPSNTKVDKRV
light: EIVLTQSPDFQSVTPKEKVTITCRASESVDTFGISFMNWFQQKPDQSPKLLIHAASNQGSGVPSRFSGSGSGTDFTLTINSLEAEDAATYYCQQSKEVPFTFGGGTKVEIKTVAAPSVFIFPPSDEQLKSGTASVVCLLNNFYPREAKVQWKVDNALQSGNSQESVTEQDSKDSTYSLSSTLTLSKADYEKHKLYACEVTHQGLSSPVTKSFNRGECGEQKLISEEDLGGGGSGGGGSGGGGSQLDIQMTQSPSSLSASVGDRVTITCKASQDVNTSVAWYQQKPGKAPKLLIYWASTRHTGVPSRFSGSGSGTDFTFTISSLQPEDIATYYCLQYINYPYTFGQGTKLEIKRGGGGSEVQLVESGGGLVQPGGSLKLSCAASGFTFSNYWMNWVRQASGKGLEWVGEIRSKSNNYATHYAESVKGRFTISRDDSKNTAYLQMNSLKTEDTAVYYCTNRYYWGQGTLVTVSS
B1: the binding result is given as “binds”.
